Source: patent US20230174620A1
Results are given in words; binding and its absence hold for the method and conditions named. Some binding calls cover weakened binding; strength is not graded here.

Chains of the proteins cited; added tags and fusions are not shown. Lines headed by an entry give the natural chain unless they say otherwise; changes in a name come on top. Residues count along the entry.
UniProt P22004, residues 382-513: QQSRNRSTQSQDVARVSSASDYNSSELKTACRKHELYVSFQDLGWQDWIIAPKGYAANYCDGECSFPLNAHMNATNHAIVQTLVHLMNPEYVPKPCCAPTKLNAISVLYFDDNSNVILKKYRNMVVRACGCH
UniProt P27037: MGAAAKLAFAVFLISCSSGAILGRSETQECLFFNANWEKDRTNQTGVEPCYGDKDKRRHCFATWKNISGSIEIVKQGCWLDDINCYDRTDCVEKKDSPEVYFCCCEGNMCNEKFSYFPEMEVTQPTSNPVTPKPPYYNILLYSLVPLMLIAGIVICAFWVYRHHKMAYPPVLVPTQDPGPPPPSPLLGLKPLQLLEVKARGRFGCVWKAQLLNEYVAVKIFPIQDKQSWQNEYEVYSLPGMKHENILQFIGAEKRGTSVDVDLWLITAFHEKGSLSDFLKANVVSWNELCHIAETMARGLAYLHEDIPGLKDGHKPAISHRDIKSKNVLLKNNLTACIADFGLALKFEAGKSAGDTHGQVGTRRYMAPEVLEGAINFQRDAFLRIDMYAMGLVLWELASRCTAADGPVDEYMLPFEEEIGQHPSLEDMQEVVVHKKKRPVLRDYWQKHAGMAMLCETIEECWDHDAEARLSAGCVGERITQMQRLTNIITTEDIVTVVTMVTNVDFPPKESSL

Experiments:
activin B = molecular target: T1, activin B (UniProt P09529); experiment: similar binding assay (SPR, Biacore)
T1 sequence (looked up): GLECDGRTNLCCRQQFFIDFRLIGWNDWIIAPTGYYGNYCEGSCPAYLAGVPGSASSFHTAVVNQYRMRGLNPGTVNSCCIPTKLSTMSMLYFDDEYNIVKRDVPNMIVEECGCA

GDF8 = molecular target: T2, GDF8 (UniProt O14793); experiment: similar binding assay (SPR, Biacore)
T2 sequence (looked up): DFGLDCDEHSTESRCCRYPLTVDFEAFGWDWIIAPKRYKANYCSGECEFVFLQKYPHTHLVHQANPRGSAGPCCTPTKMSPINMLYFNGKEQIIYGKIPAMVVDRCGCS

BMP6 = BMP6 (UniProt P22004); experiment: similar binding assay (SPR, Biacore)
BMP10 = molecular target: T3, BMP10 (UniProt O95393); experiment: similar binding assay (SPR, Biacore)
T3 sequence (looked up): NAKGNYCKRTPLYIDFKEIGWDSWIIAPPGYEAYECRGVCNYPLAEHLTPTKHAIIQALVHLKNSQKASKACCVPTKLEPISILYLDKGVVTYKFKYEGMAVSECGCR

GDF11 = molecular target: T4, GDF11 (UniProt O95390); experiment: SPR (Biacore), ligand amine-coupled to CM5 chip, ActRIIA-mFc as analyte
T4 sequence (looked up): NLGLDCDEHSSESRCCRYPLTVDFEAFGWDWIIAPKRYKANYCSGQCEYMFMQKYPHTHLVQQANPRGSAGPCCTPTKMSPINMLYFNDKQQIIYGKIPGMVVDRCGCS

Measured: binding

ActRIIA-mFc (from UniProt P27037 21-135) (Fc fusion)
binds: all assays above
